Source: patent US20160347801A1 (NATIONAL CANCER CENTER, published 2016)
No constants are given. Whether binding was seen depends on the method and setting. Some results given as binding are weak or reduced against the parent protein; the word gives no strength. Where a sequence is shown, tags or fusion partners need not be part of it.

Tests used:
GST-PLK1 [1] = target: GST-PLK1 (UniProt P53350); test: reciprocal pull-down with Flag and GST beads from transfected cells, immunoblot
GST-PLK1 [2] = target: GST-PLK1 (UniProt P53350); test: immunoprecipitation with Flag or GST bead, immunoblot (legend of FIGS. 7A to 7D)

B1: Flag-NCAPG2 (full-length, wild type) (protein, not shown: small tags and cut ends)
chain: MEKRETFVQAVSKELVGEFLQFVQLDKEASDPFSLNELLDELSRKQKEELWQRLKNLLTDVLLESPVDGWQVVEAQGEDNMETEHGSKMRKSIEIIYAITSVILASVSVINESENYEALLECVIILNGILYALPESERKLQSSIQDLCVTWWEKGLPAKEDTGKTAFVMLLRRSLETKTGADVCRLWRIHQALYCFDYDLEESGEIKDMLLECFININYIKKEEGRRFLSCLFNWNINFIKMIHGTIKNQLQGLQKSLMVYIAEIYFRAWKKASGKILEAIENDCIQDFMFHGIHLPRRSPVHSKVREVLSYFHHQKKVRQGVEEMLYRLYKPILWRGLKARNSEVRSNAALLFVEAFPIRDPNLHAIEMDSEIQKQFEELYSLLEDPYPMVRSTGILGVCKITSKYWEMMPPTILIDLLKKVTGELAFDTSSADVRCSVFKCLPMILDNKLSHPLLEQLLPALRYSLHDNSEKVRVAFVDMLLKIKAVRAAKFWKICPMEHILVRLETDSRPVSRRLVSLIFNSFLPVNQPEEVWCERCVTLVQMNHAAARRFYQYAHEHTACTNIAKLIHVIRHCLNACIQRAVREPPEDEEEEDGREKENVTVLDKTLSVNDVACMAGLLEIIVILWKSIDRSMENNKEAKLYTINKFASVLPEYLKVFKDDRCKIPLFMLMSFMPASAVPPFSCGVISTLRSREEGAVDKSYCTLLDCLCSWGQVGHILELVDNWLPTEHAQAKSNTASKGRVQIHDTRPVKPELALVYIEYLLTHPKNRECLLSAPRKKLNHLLKALETSKADLESLLQTPGGKPRGFSEAAAPRAFGLHCRLSIHLQHKFCSEGKVYLSMLEDTGFWLESKILSFIQDQEEDYLKLHRVIYQQIIQTYLTVCKDVVMVGLGDHQFQMQLLQRSLGIMQTVKGFFYVSLLLDILKEITGSSLIQKTDSDEEVAMLLDTVQKVFQKMLECIARSFRKQPEEGLRLLYSVQRPLHEFITAVQSRHTDTPVHRGVLSTLIAGPVVEISHQLRKVSDVEELTPPEHLSDLPPFSRCLIGIIIKSSNVVRSFLDELKACVASNDIEGIVCLTAAVHIILVINAGKHKSSKVREVAATVHRKLKTFMEITLEEDSIERFLYESSSRTLGELLNS
In the case of B1, the binding (GST-PLK1 [1]) is reported as “binds” and the binding (GST-PLK1 [2]) is reported as “binds”.
